Data: PubChem BioAssay AID248 (DTP/NCI, 2004)
The list shows only some results of the screen, not a fair sample: it is rich in T/C values a quarter to a half above the control, in often repeated tests (any T/C) and in doses without a T/C. Other doses and runs of a compound stand elsewhere. T/C gives the treated animals as a percentage of the vehicle group. Some doses have a count of surviving animals in place of a T/C: the source holds a T/C of zero for them, seemingly a mark for toxic or unscored doses. Some doses without a T/C left all or most animals alive at the check, yet need not have been tolerated: the source hardly ever lists a survival T/C far under the control, and the zero likely stands for such cases as well. Survivors were counted at the toxicity check, usually on the fifth day, unless a day is given; later deaths do not show. Schedules are NCI's codes, read here as Q, the interval in days (D) or hours (H), X, the number of doses. Some entries were tested several times; the results are listed from low to high. Some schedules carry Z or #; the key to these is not given. Where survival is the endpoint, this PubChem deposit counts one and a half times the control or more as active, and values a quarter to a half above the control carry no call in these data; other NCI protocols may use other cut-offs.

Tested on: L1210 leukemia ip in BDF1 mice, survival T/C
Assay: NCI In Vivo Anticancer Drug Screen. Data for tumor model L1210 Leukemia (intraperitoneal) in B6D2F1 (BDF1) mice
Conditions: T/C endpoint: mean survival time, higher T/C = longer survival
[1] = dose: 150.0 mg/kg/injection, schedule: Q01DX001 (ip), vehicle: saline
[2] = dose: 300.0 mg/kg/injection, schedule: Q01DX001 (ip), vehicle: other
[3] = dose: 300.0 mg/kg/injection, schedule: Q01DX001 (ip), vehicle: saline
[4] = dose: 150.0 mg/kg/injection, schedule: Q01DX001 (ip), vehicle: carboxymethylcellulose (CMC)
[5] = dose: 300.0 mg/kg/injection, schedule: Q01DX001 (ip), vehicle: carboxymethylcellulose (CMC)
[6] = dose: 400.0 mg/kg/injection, schedule: Q04DX003 (ip), vehicle: saline with Tween-80
[7] = dose: 200.0 mg/kg/injection, schedule: Q04DX002 (ip), vehicle: saline with Tween-80
[8] = dose: 400.0 mg/kg/injection, schedule: Q04DX002 (ip), vehicle: saline with Tween-80
[9] = dose: 200.0 mg/kg/injection, schedule: Q01DX009 (ip), vehicle: saline with Tween-80

## CN1C2CSCC1CC(O)C2 (configuration not stated)
[1]
  survivor count: 1 of 6
[2]
  survivor count: 0 of 6
[3]
  survivor count: 0 of 6

## Cn1cnc2c(SCc3ccccc3)ncnc21
dose: 150.0 mg/kg/injection, schedule: Q01DX009 (ip), vehicle: saline with Tween-80
  T/C: 125 % of control
dose: 300.0 mg/kg/injection, schedule: Q01DX009 (ip), vehicle: saline with Tween-80
  T/C: 129 % of control
dose: 400.0 mg/kg/injection, schedule: Q01DX009 (ip), vehicle: saline with Tween-80
  T/C: 138 % of control

## CN1CCc2ccc(O)cc2C1
dose: 400.0 mg/kg/injection, schedule: Q04DX003 (ip), vehicle: saline
  survivor count: 3 of 6

## C#CC(C)OCC(C)OC (configuration not stated)
dose: 100.0 mg/kg/injection, schedule: Q01DX009 (ip), vehicle: acetone
  survivor count: 3 of 6
dose: 200.0 mg/kg/injection, schedule: Q04DX003 (ip), vehicle: acetone
  survivor count: 1 of 6
dose: 400.0 mg/kg/injection, schedule: Q04DX003 (ip), vehicle: acetone
  survivor count: 0 of 6

## O=P(CCC(F)(F)C(F)(F)C(F)(F)C(F)(F)C(F)(F)C(F)(F)C(F)(F)F)(N1CC1)N1CC1
[4]
  survivor count: 1 of 6
[5]
  survivor count: 0 of 6

## Nc1nc(=S)c2[nH]c(N=Nc3ccc(S(=O)(=O)Nc4ncccn4)cc3)nc2[nH]1
dose: 45.0 mg/kg/injection, schedule: Q04DX003 (ip), vehicle: Klucel (hydroxypropylcellulose) (HPC)
  T/C: 148 % of control
dose: 65.0 mg/kg/injection, schedule: Q04DX003 (ip), vehicle: Klucel (hydroxypropylcellulose) (HPC)
  T/C: 132 % of control
dose: 200.0 mg/kg/injection, schedule: Q04DX003 (ip), vehicle: Klucel (hydroxypropylcellulose) (HPC)
  T/C: 128 and 134 % of control
dose: 400.0 mg/kg/injection, schedule: Q01DX009 (ip), vehicle: Klucel (hydroxypropylcellulose) (HPC)
  survivor count: 1 of 6
[6]
  survivor count: 1 of 6

## CC(=O)[C@H]1CC[C@H]2[C@@H]3C[C@H](C)C4=CC(=O)CC[C@]4(C)[C@H]3C(=O)C[C@]12C
dose: 80.0 mg/kg/injection, schedule: Q01DX009 (ip), vehicle: carboxymethylcellulose (CMC)
  survivor count: 10 of 10
dose: 255.0 mg/kg/injection, schedule: Q03HX008 (ip), vehicle: Klucel (hydroxypropylcellulose) (HPC)
  survivor count: 0 of 10
dose: 255.0 mg/kg/injection, schedule: Q03HX016 (ip), vehicle: Klucel (hydroxypropylcellulose) (HPC)
  survivor count: 0 of 10
dose: 255.0 mg/kg/injection, schedule: Q03HX024 (ip), vehicle: Klucel (hydroxypropylcellulose) (HPC)
  survivor count: 0 of 10
dose: 512.0 mg/kg/injection, schedule: Q01DX001 (ip), vehicle: Klucel (hydroxypropylcellulose) (HPC)
  survivor count: 5 of 10
dose: 512.0 mg/kg/injection, schedule: Q01DX009 (ip), vehicle: Klucel (hydroxypropylcellulose) (HPC)
  survivor count: 1 of 10
dose: 512.0 mg/kg/injection, schedule: Q04DX003 (ip), vehicle: Klucel (hydroxypropylcellulose) (HPC)
  survivor count: 4 of 10
dose: 800.0 mg/kg/injection, schedule: Q01DX015 (sc), vehicle: steroid suspending solution
  survivor count: 0 of 6
dose: 1024.0 mg/kg/injection, schedule: Q01DX001 (ip), vehicle: Klucel (hydroxypropylcellulose) (HPC)
  survivor count: 1 of 10
dose: 1024.0 mg/kg/injection, schedule: Q01DX009 (ip), vehicle: Klucel (hydroxypropylcellulose) (HPC)
  survivor count: 0 of 10
dose: 1024.0 mg/kg/injection, schedule: Q04DX003 (ip), vehicle: Klucel (hydroxypropylcellulose) (HPC)
  survivor count: 0 of 10
dose: 1024.0 mg/kg/injection, schedule: Q08DX002 (ip), vehicle: Klucel (hydroxypropylcellulose) (HPC)
  survivor count: 0 of 10
dose: 2048.0 mg/kg/injection, schedule: Q01DX001 (ip), vehicle: Klucel (hydroxypropylcellulose) (HPC)
  survivor count: 0 of 10
dose: 2048.0 mg/kg/injection, schedule: Q04DX003 (ip), vehicle: Klucel (hydroxypropylcellulose) (HPC)
  survivor count: 0 of 10
dose: 2048.0 mg/kg/injection, schedule: Q08DX002 (ip), vehicle: Klucel (hydroxypropylcellulose) (HPC)
  survivor count: 0 of 10

## C[CH2][Pb]([CH2]C)([CH2]C)[S]c1ccc(Cl)cc1
dose: 100.0 mg/kg/injection, schedule: Q04DX002 (sc), vehicle: olive oil, sesame oil, peanut oil
  survivor count: 3 of 3

## O=C(COc1ccc(Cl)cc1)Nc1ccc(Cl)cc1C(=O)c1ccccc1
dose: 100.0 mg/kg/injection, schedule: Q01DX009 (ip), vehicle: other
  survivor count: 6 of 6

## O=C(Nc1ccc(F)cc1)Nc1ccc(I)cc1
dose: 200.0 mg/kg/injection, schedule: Q01DX009 (ip), vehicle: Klucel (hydroxypropylcellulose) (HPC)
  survivor count: 5 of 6

## CC(=O)OC1CCCCC1NC(=O)NCCCl (configuration not stated)
dose: 100.0 mg/kg/injection, schedule: Q04DX002 (ip), vehicle: Klucel (hydroxypropylcellulose) (HPC)
  survivor count: 1 of 3
dose: 200.0 mg/kg/injection, schedule: Q04DX002 (ip), vehicle: Klucel (hydroxypropylcellulose) (HPC)
  survivor count: 1 of 3

## Clc1ccc(N2CCNCC2)cc1
[1]
  survivor count: 2 of 6
[3]
  survivor count: 0 of 6

## CCNc1nc(N)nc2n[nH]nc12
dose: 400.0 mg/kg/injection, schedule: Q01DX001 (ip), vehicle: saline with Tween-80
  survivor count: 0 of 6

## ClC(Cl)(c1ccccc1)C1(c2ccccc2)CC1
dose: 300.0 mg/kg/injection, schedule: Q01DX001 (ip), vehicle: acetone
  survivor count: 3 of 6

## Cc1ccc(S(=O)(=O)N=N/C=C2/C=CC=CN2O)cc1
dose: 87.5 mg/kg/injection, schedule: Q01DX009 (ip), vehicle: saline with Tween-80
  T/C: 131 % of control
dose: 350.0 mg/kg/injection, schedule: Q01DX009 (ip), vehicle: saline with Tween-80
  survivor count: 0 of 6

## C/C=C1/CC(C)C(O)(CO)C(=O)OCC2=CCN3CCC(OC1=O)C23 (configuration not stated)
[4]
  survivor count: 0 of 6
[5]
  survivor count: 0 of 6

## Oc1ccccc1C=Nc1ccc(Cc2ccc(N=Cc3ccccc3O)cc2)cc1
dose: 75.0 mg/kg/injection, schedule: Q04DX003 (ip), vehicle: other
  survivor count: 6 of 6

## COC1OC(CO)C(O)C(O)C1O (configuration not stated)
dose: 100.0 mg/kg/injection, schedule: Q01DX001 (ip), vehicle: saline
  T/C: 130 % of control

## O=[N+]([O-])c1ccc(S(=O)(=O)OCc2ccccc2COS(=O)(=O)c2ccc([N+](=O)[O-])cc2)cc1
[7]
  survivor count: 3 of 3
[8]
  survivor count: 3 of 3

## COc1ccc2c3c1OC1C(=O)CCC4C(C2)N(C)CCC314 (configuration not stated)
[1]
  survivor count: 2 of 6
[3]
  survivor count: 0 of 6

## COC(c1ccccc1)[CH]([Hg][Br])C(=O)OC1CC2CCC1(C)C2(C)C (configuration not stated)
dose: 100.0 mg/kg/injection, schedule: Q01DX001 (ip), vehicle: carboxymethylcellulose (CMC)
  survivor count: 1 of 4
dose: 200.0 mg/kg/injection, schedule: Q01DX001 (ip), vehicle: carboxymethylcellulose (CMC)
  survivor count: 1 of 4
dose: 400.0 mg/kg/injection, schedule: Q01DX001 (ip), vehicle: carboxymethylcellulose (CMC)
  survivor count: 2 of 4

## Oc1c(Br)cc(Br)cc1C=NCC1CCC(CN=Cc2cc(Br)cc(Br)c2O)CC1 (configuration not stated)
dose: 100.0 mg/kg/injection, schedule: Q01DX009 (ip), vehicle: saline with Tween-80
  survivor count: 3 of 3
[9]
  survivor count: 3 of 3 and 6 of 6

## S=P(c1ccccc1)(N1CC1)N1CC1
dose: 200.0 mg/kg/injection, schedule: Q01DX Z (ip), vehicle: saline
  survivor count: 5 of 6
[7]
  survivor count: 3 of 3
dose: 400.0 mg/kg/injection, schedule: Q01DX Z (ip), vehicle: saline
  survivor count: 4 of 6
[8]
  survivor count: 3 of 3

## O=[N+]([O-])c1ccc(/C=N/c2ncc(Br)s2)o1
[9]
  survivor count: 2 of 6
[6]
  survivor count: 2 of 6

## CN(C)Cc1c[nH]c2ccsc12
[6]
  survivor count: 6 of 6

## CC(=O)c1ccc(CC(C)C)cc1
dose: 75.0 mg/kg/injection, schedule: Q01DX009 (ip), vehicle: Klucel (hydroxypropylcellulose) (HPC)
  survivor count: 0 of 6

## OC(CF)C(O)C(O)C(O)CF (configuration not stated)
dose: 150.0 mg/kg/injection, schedule: Q01DX009 (ip), vehicle: saline
  survivor count: 6 of 6

## Cc1ccc(S(=O)(=O)C2=CC(=O)c3ccccc3C2=O)cc1
dose: 150.0 mg/kg/injection, schedule: Q01DX001 (ip), vehicle: other
  survivor count: 0 of 6
[2]
  survivor count: 0 of 6
